Data: article PMC8080530, “Glucocorticoid receptor Thr524 phosphorylation by MINK1 induces interactions with 14-3-3 protein regulators” (The Journal of Biological Chemistry, 2021)
Results are given in words; binding and its absence hold for the method and conditions named. Some results given as binding are weak or reduced against the parent protein; the word gives no strength.

The chains behind the UniProt entries cited, without tags or fusion partners. Where a name states a change or a piece, a line headed by the entry shows the natural chain unless it says otherwise.
UniProt P04150: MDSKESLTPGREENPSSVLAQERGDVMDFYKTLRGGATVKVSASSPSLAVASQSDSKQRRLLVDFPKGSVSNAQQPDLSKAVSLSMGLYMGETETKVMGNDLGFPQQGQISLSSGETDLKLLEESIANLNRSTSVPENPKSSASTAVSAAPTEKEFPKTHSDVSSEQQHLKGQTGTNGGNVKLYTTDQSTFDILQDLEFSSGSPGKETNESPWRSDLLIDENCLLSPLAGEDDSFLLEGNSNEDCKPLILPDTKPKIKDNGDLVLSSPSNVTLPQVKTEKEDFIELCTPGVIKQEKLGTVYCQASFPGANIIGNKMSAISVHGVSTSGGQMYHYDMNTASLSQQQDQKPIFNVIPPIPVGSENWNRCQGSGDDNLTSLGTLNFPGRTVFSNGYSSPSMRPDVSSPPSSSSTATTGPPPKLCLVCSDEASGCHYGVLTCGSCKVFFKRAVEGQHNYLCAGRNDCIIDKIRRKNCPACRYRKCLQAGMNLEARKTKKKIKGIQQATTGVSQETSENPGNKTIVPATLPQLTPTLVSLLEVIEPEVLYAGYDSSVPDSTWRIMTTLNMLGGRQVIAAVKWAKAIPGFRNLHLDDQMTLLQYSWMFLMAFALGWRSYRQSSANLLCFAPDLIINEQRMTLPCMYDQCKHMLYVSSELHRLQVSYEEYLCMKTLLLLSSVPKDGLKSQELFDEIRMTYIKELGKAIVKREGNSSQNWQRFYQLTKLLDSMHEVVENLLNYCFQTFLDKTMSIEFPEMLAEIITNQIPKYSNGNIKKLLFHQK
UniProt P29311: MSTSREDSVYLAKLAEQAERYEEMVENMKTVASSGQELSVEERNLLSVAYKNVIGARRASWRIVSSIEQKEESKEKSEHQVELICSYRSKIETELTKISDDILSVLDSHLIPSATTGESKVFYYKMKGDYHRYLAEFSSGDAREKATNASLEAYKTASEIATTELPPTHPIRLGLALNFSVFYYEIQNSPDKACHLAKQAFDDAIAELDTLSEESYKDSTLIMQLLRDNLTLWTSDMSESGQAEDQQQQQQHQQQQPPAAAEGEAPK

How the values were obtained:
[1] = biological target: GFP-GR, full-length WT glucocorticoid receptor (human) (UniProt P04150); experiment: far-Western, overlay or dot blot; GFP-Trap immunoprecipitates of transfected U2OS or HEK293 cells stimulated with forskolin or calyculin A (with or without co-transfected FLAG-MINK1), resolved on a gel and held on a PVDF membrane; probed with BMH1-BMH2-digoxigenin; anti-DIG detection; only the binder purified
[2] = biological target: GFP-GR, full-length WT glucocorticoid receptor (human) (UniProt P04150); experiment: condition: only cells without further stimulation (no calyculin A); far-Western, overlay or dot blot; GFP-Trap immunoprecipitates of U2OS cells transfected with GFP-GR or GFP-GR and FLAG-MINK1, without further stimulation; probed with BMH1-BMH2-digoxigenin; only the binder purified

## BMH1-BMH2-digoxigenin (the two recombinant yeast isoforms of 14-3-3 tagged with digoxigenin) (from UniProt P29311 1-267; P34730 1-273) (complex)
[1]
  binding: binds
[2]
  binding: no binding
